Measurements: PMC10484734, “TLK1-mediated RAD54 phosphorylation spatio-temporally regulates Homologous Recombination Repair” (Nucleic Acids Research, 2023)
No constants are given. Whether binding was seen depends on the method and setting. In cells and extracts the contact can be indirect. A result given as binding can be weak or reduced; the word gives no strength. For part of these data: Tags and fused reporters may be left off the sequences shown. Values belong to the binder of their own block, whether it stands above or below them.

Amino acid sequences for entries named in this document (tags omitted). A change or cut given only in a name is not applied to a line headed by its entry.
UniProt Q9UKI8: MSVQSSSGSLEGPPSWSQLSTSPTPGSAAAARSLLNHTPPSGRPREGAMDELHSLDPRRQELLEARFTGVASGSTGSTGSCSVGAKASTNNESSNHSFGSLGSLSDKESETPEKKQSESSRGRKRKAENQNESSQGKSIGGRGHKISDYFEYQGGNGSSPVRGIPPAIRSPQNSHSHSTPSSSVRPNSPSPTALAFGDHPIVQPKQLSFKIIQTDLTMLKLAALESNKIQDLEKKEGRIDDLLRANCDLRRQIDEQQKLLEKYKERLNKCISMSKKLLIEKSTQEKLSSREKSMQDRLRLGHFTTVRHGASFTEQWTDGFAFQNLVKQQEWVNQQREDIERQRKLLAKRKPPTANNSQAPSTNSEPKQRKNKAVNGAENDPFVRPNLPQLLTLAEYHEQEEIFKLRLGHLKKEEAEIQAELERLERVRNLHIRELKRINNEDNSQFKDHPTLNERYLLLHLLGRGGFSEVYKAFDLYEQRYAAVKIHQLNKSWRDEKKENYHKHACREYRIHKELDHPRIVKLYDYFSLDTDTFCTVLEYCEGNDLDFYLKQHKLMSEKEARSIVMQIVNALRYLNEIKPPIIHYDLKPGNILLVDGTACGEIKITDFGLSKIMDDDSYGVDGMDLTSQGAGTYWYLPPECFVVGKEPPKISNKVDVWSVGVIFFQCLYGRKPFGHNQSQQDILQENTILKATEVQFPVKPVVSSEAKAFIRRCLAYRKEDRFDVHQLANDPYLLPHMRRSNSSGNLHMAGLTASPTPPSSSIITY

Experiments:
[1] = target: Recombinant 6X-His-human TLK1 kinase domain (TLK1B) (human) (UniProt Q9UKI8); test: co-IP; recombinant proteins; Protein A/G PLUS agarose coated with anti-TLK1 or IgG isotype antibody; 0.5 μg of TLK1B and of RAD54 or RAD51 in 200 μl PBS + 0.1% Tween20, BSA added, 2 h at 4°C; western blot of supernatant and eluate; both purified
[2] = target: Recombinant 6X-His-human TLK1 kinase domain (TLK1B) (human) (UniProt Q9UKI8); test: pull-down; HIS-TLK1B on Ni-NTA beads incubated with HeLa cell lysate; RAD54 probed by immunoblotting; only the target purified

binding [1]: binds
B1: His6-Thioredoxin-RAD54-Flag (recombinant human RAD54, wild type) (enzyme, UniProt Q92698 1-747)
chain: MRRSLAPSQLAKRKPEGRSCDDEDWQPGLVTPRKRKSSSETQIQECFLSPFRKPLSQLTNQPPCLDSSQHEAFIRSILSKPFKVPIPNYQGPLGSRALGLKRAGVRRALHDPLEKDALVLYEPPPLSAHDQLKLDKEKLPVHVVVDPILSKVLRPHQREGVKFLWECVTSRRIPGSHGCIMADEMGLGKTLQCITLMWTLLRQSPECKPEIDKAVVVSPSSLVKNWYNEVGKWLGGRIQPLAIDGGSKDEIDQKLEGFMNQRGARVSSPILIISYETFRLHVGVLQKGSVGLVICDEGHRLKNSENQTYQALDSLNTSRRVLISGTPIQNDLLEYFSLVHFVNSGILGTAHEFKKHFELPILKGRDAAASEADRQLGEERLRELTSIVNRCLIRRTSDILSKYLPVKIEQVVCCRLTPLQTELYKRFLRQAKPAEELLEGKMSVSSLSSITSLKKLCNHPALIYDKCVEEEDGFVGALDLFPPGYSSKALEPQLSGKMLVLDYILAVTRSRSSDKVVLVSNYTQTLDLFEKLCRARRYLYVRLDGTMSIKKRAKVVERFNSPSSPDFVFMLSSKAGGCGLNLIGANRLVMFDPDWNPANDEQAMARVWRDGQKKTCYIYRLLSAGTIEEKIFQRQSHKKALSSCVVDEEQDVERHFSLGELKELFILDEASLSDTHDRLHCRRCVNSRQIRPPPDGSDCTSDLAGWNHCTDKWGLRDEVLQAAWDAASTAITFVFHQRSHEEQRGLR

binding [2]: binds
B2: endogenous RAD54 of HeLa cells (enzyme, UniProt Q92698 1-747)
chain: B1 chain

B3: recombinant human RAD51 (natural protein, UniProt Q06609 1-339, looked up)
chain: MAMQMQLEANADTSVEEESFGPQPISRLEQCGINANDVKKLEEAGFHTVEAVAYAPKKELINIKGISEAKADKILAEAAKLVPMGFTTATEFHQRRSEIIQITTGSKELDKLLQGGIETGSITEMFGEFRTGKTQICHTLAVTCQLPIDRGGGEGKAMYIDTEGTFRPERLLAVAERYGLSGSDVLDNVAYARAFNTDHQTQLLYQASAMMVESRYALLIVDSATALYRTDYSGRGELSARQMHLARFLRMLLRLADEFGVAVVITNQVVAQVDGAAMFAADPKKPIGGNIIAHASTTRLYLRKGRGETRICKIYDSPCLPEAEAMFAINADGVGDAKD
notes: human RAD51 recombinase; also called rc-RAD51
binding [1]: no binding (tested: 0.5 μg of each protein in 200 μl)
